Results deposited as PubChem BioAssay AID1259254 (NCATS, 2017)

Aim: 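Genome-wide screen for genes that prevent DNA re-replication in cancer cells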 (primary screen)
Cells: human HCT116 colorectal cancer cells
Reagent: single siRNA against human genes
Time to read-out: 3 days
Read-out: 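Nuclei stained with Hoechst and imaged; cell-cycle phase assigned by DNA content; G2 share scaled per plate, non-targeting siRNA 0%, GMNN siRNA 100%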
Reading the numbers: G2 robust z-score and G2 cells, % of GMNN control: higher = more G2 cells, more excess DNA replication
Hit rule: 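An siRNA counts as active if its G2 robust z-score lies at least 5 MADs above the screen median; here such calls match roughly 38% of GMNN control or more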
In all, the deposit lists about 59,000 reagents; this is a part drawn at random. About 1,550 of them (2.6%) were called active. 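G2 share is only a proxy for re-replication; each gene was hit by three separate siRNAs, and active genes were retested.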 A number with no mark means an inactive call. The numbers tell different reagents against one gene apart. Further read-outs or replicates are left out here. No sequences are given here. Not stated in the record: the amount of reagent.

Depletion of RASL11A #1 came out at: G2 robust z-score -0.817; G2 cells, % of GMNN control -2.78.
With knock-down of RASL11A #2, the record shows G2 robust z-score -0.687; G2 cells, % of GMNN control -1.87.
After knock-down of RASL11A #3, the record shows G2 robust z-score -0.173; G2 cells, % of GMNN control 1.75.
CWH43 #1 scored G2 robust z-score -0.792; G2 cells, % of GMNN control -2.61.
CWH43 #2 gave G2 robust z-score -0.109; G2 cells, % of GMNN control 2.2.
CWH43 #3 gave G2 robust z-score -1.61; G2 cells, % of GMNN control -8.38.
MXRA8 #1 showed G2 robust z-score -1.41; G2 cells, % of GMNN control -6.92.
Knock-down of MXRA8 #2 resulted in: G2 robust z-score -0.365; G2 cells, % of GMNN control 0.397.
For MXRA8 #3, the values are G2 robust z-score -0.692; G2 cells, % of GMNN control -1.9.
Against WWC3 #1, the values are G2 robust z-score -0.543; G2 cells, % of GMNN control -0.852.
After knock-down of WWC3 #2, the screen gave G2 robust z-score -0.192; G2 cells, % of GMNN control 1.62.
WWC3 #3 gave G2 robust z-score 0.504; G2 cells, % of GMNN control 6.51.
PUDP #1 showed G2 robust z-score -1.14; G2 cells, % of GMNN control -5.06.
For PUDP #2, the entry reads G2 robust z-score 2.2; G2 cells, % of GMNN control 18.4.
After knock-down of PUDP #3, the record shows G2 robust z-score 0.0731; G2 cells, % of GMNN control 3.48.
For TLX1 #1, the entry reads G2 robust z-score -0.646; G2 cells, % of GMNN control -1.58.
TLX1 #2 showed G2 robust z-score 7.9 (active); G2 cells, % of GMNN control 58.5.
TLX1 #3 scored G2 robust z-score 0.611; G2 cells, % of GMNN control 7.27.

2 entries from above, set out differently.
gene knocked down,reagent no.,G2 robust z-score,"G2 cells, % of GMNN control"
TLX1,1,-0.646,-1.58
TLX1,2,7.9 (active),58.5
